Patent US5196515A, “Thiolactone bifunctional chelating agents for diagnostic and therapeutic products” (The Johns Hopkins University, priority 1991, dated 1993)

Experiment: Tc-99m labeling of the thiolactone BCA-benzylamine adduct (DADT-BzA)

Compound: CN(CCN(CC(=O)NCc1ccccc1)CC(C)(C)S)CC(C)(C)S [DADT-BzA, 2,2,4,9,9-Pentamethyl 4,7-diaza-7-[benzylamidomethyl]-1,10-[bis-p-methoxybenzyl]-1,10-dithiadecane]
- contaminating colloidal TcO2 (exchange labeling, HPLC): no evidence of contaminating colloidal TcO2
- efficiency of labeling with Tc-99m (exchange) (ligand concentrations of 10^-4 M): greater than 90%
